# Taken from: PubChem BioAssay AID1224830 (NIAID, 2016)
# Test: 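Regulators of TLR4 signalling towards TNF-alpha in macrophage-like cells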 (primary screen)
# Cells: human THP-1 monocytic leukaemia cells, TNF dual-luciferase reporter clone, PMA-differentiated to macrophage-like cells
# Knock-down reagent: siRNA pool against human genes, 50 nM
# Timing: LPS for 4 h, given about 3 days after siRNA transfection
# Challenge: bacterial LPS (TLR4 ligand), 10 ng/ml
# Measurement: 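Ratio of firefly to renilla light, scaled to the plate median and expressed as a robust z-score per replicate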
# Reading the numbers: TNF reporter robust z-score: higher = stronger TNF reporter response to LPS
# Rule for the call: 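Each well counts as active if its z-score is over 2.8 or under -1.5; controls are left without a call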
# The deposit covers about 18,000 reagents; this is a random part of them. Of all reagents, about 2,900 (16%) are marked active. 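Calls are made per well; low scores hint the gene aids the LPS response, high scores that it dampens it.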 A number with no mark means an inactive call. Repeated entries: four replicate wells of each siRNA pool. No sequences are given here.
gene,PubChem SID,TNF reporter robust z-score
AP2A2 (GeneID 161),SID315447229,1.95
AP2A2 (GeneID 161),SID315447229,1.8
AP2A2 (GeneID 161),SID315447229,2.34
AP2A2 (GeneID 161),SID315447229,2.44
SRRM1 (GeneID 10250),SID315453946,-0.13
SRRM1 (GeneID 10250),SID315453946,-1.05
SRRM1 (GeneID 10250),SID315453946,-1.14
SRRM1 (GeneID 10250),SID315453946,-0.92
GSDMC (GeneID 56169),SID315458039,-1.58 (active)
GSDMC (GeneID 56169),SID315458039,2.09
GSDMC (GeneID 56169),SID315458039,0.39
GSDMC (GeneID 56169),SID315458039,1.89
RAD23A (GeneID 5886),SID315451028,0.28
RAD23A (GeneID 5886),SID315451028,0.17
RAD23A (GeneID 5886),SID315451028,0.29
RAD23A (GeneID 5886),SID315451028,0.71
EFCAB13 (GeneID 124989),SID315461647,-0.51
EFCAB13 (GeneID 124989),SID315461647,0.54
EFCAB13 (GeneID 124989),SID315461647,1.1
EFCAB13 (GeneID 124989),SID315461647,0.76
MPND (GeneID 84954),SID315460604,-0.63
MPND (GeneID 84954),SID315460604,-0.3
MPND (GeneID 84954),SID315460604,-0.48
PHB2 (GeneID 11331),SID315454763,-1.22
PHB2 (GeneID 11331),SID315454763,-0.66
PHB2 (GeneID 11331),SID315454763,-0.74
PHB2 (GeneID 11331),SID315454763,-0.75
ESYT1 (GeneID 23344),SID315455174,1.04
ESYT1 (GeneID 23344),SID315455174,0.89
ESYT1 (GeneID 23344),SID315455174,0.22
ESYT1 (GeneID 23344),SID315455174,-0.39
KRT38 (GeneID 8687),SID315452746,-1.03
KRT38 (GeneID 8687),SID315452746,-0.13
KRT38 (GeneID 8687),SID315452746,-0.28
KRT38 (GeneID 8687),SID315452746,-0.48
IL1RAPL1 (GeneID 11141),SID315454631,1.99
IL1RAPL1 (GeneID 11141),SID315454631,1.57
IL1RAPL1 (GeneID 11141),SID315454631,0.56
IL1RAPL1 (GeneID 11141),SID315454631,-0.68
TRPV2 (GeneID 51393),SID315456692,-0.88
TRPV2 (GeneID 51393),SID315456692,-0.64
TRPV2 (GeneID 51393),SID315456692,0.86
TRPV2 (GeneID 51393),SID315456692,0.27
DDX49 (GeneID 54555),SID315457080,-0.87
DDX49 (GeneID 54555),SID315457080,-0.7
DDX49 (GeneID 54555),SID315457080,-0.6
DDX49 (GeneID 54555),SID315457080,0.15
H2BC14 (GeneID 8342),SID315452494,-0.68
H2BC14 (GeneID 8342),SID315452494,-0.85
H2BC14 (GeneID 8342),SID315452494,-0.98
H2BC14 (GeneID 8342),SID315452494,-0.92
RTEL1 (GeneID 51750),SID315456878,0.72
RTEL1 (GeneID 51750),SID315456878,5.51 (active)
RTEL1 (GeneID 51750),SID315456878,-0.9
RTEL1 (GeneID 51750),SID315456878,1.67
TP53I13 (GeneID 90313),SID315460802,-1.38
TP53I13 (GeneID 90313),SID315460802,-0.86
TP53I13 (GeneID 90313),SID315460802,-0.65
TP53I13 (GeneID 90313),SID315460802,0.23
FRAS1 (GeneID 80144),SID315459665,-0.73
FRAS1 (GeneID 80144),SID315459665,-0.55
FRAS1 (GeneID 80144),SID315459665,-0.82
FRAS1 (GeneID 80144),SID315459665,-0.53
APC (GeneID 324),SID315447340,0.19
APC (GeneID 324),SID315447340,0.39
APC (GeneID 324),SID315447340,0.18
APC (GeneID 324),SID315447340,0.11
SLC51A (GeneID 200931),SID315463053,-0.25
SLC51A (GeneID 200931),SID315463053,-0.4
SLC51A (GeneID 200931),SID315463053,0.05
SLC51A (GeneID 200931),SID315463053,-0.11
CCDC172 (GeneID 374355),SID315464313,0.99
CCDC172 (GeneID 374355),SID315464313,0.58
CCDC172 (GeneID 374355),SID315464313,0.3
CCDC172 (GeneID 374355),SID315464313,1.48

Copied from the listing for reference:
gene,PubChem SID,TNF reporter robust z-score
TP53I13 (GeneID 90313),SID315460802,-1.38
TP53I13 (GeneID 90313),SID315460802,-0.86
TP53I13 (GeneID 90313),SID315460802,-0.65
TP53I13 (GeneID 90313),SID315460802,0.23
FRAS1 (GeneID 80144),SID315459665,-0.73
FRAS1 (GeneID 80144),SID315459665,-0.55
FRAS1 (GeneID 80144),SID315459665,-0.82
FRAS1 (GeneID 80144),SID315459665,-0.53
APC (GeneID 324),SID315447340,0.19
APC (GeneID 324),SID315447340,0.39
